Data as given in patent publication US20260207649A1, “LSD1 INHIBITOR AND PRMT6 INHIBITOR FOR USE IN THE TREATMENT OF A DISEASE ASSOCIATED WITH GAIN-OF-FUNCTION OF ANDROGEN RECEPTOR (AR) AND/OR WITH OVEREXPRESSION OF AN AR COACTIVATOR” (FONDAZIONE TELETHON ETS(30%), priority 2022, published 2026).
Results are given in words; binding and its absence hold for the method and conditions named. In cells and extracts the contact can be indirect. Some results given as binding are weak or reduced against the parent protein; the word gives no strength.

Chains of the proteins cited; added tags and fusions are not shown.
UniProt P10275: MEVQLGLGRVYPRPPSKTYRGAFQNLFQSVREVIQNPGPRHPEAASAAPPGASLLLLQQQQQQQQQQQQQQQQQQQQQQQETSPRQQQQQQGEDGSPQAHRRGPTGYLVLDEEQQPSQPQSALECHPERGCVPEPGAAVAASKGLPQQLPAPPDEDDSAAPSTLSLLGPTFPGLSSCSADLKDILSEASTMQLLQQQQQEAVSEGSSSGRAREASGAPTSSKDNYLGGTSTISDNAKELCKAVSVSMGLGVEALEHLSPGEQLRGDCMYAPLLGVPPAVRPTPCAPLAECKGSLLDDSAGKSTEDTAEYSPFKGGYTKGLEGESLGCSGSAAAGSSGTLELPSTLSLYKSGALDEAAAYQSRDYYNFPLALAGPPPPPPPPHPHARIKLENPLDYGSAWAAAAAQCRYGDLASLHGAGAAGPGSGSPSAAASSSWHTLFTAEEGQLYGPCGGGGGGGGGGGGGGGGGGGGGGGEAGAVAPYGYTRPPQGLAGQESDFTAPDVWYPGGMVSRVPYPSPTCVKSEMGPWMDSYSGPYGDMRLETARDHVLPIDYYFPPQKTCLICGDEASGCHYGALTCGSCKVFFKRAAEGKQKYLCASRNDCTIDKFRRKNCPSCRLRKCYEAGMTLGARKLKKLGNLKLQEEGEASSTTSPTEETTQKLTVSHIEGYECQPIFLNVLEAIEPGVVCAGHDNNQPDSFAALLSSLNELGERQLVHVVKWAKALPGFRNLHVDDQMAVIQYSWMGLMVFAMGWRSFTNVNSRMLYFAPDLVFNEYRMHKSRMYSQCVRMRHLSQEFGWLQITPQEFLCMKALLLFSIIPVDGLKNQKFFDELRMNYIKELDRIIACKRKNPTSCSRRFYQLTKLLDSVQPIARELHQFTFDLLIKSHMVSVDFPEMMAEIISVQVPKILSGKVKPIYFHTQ
UniProt Q6NZB1: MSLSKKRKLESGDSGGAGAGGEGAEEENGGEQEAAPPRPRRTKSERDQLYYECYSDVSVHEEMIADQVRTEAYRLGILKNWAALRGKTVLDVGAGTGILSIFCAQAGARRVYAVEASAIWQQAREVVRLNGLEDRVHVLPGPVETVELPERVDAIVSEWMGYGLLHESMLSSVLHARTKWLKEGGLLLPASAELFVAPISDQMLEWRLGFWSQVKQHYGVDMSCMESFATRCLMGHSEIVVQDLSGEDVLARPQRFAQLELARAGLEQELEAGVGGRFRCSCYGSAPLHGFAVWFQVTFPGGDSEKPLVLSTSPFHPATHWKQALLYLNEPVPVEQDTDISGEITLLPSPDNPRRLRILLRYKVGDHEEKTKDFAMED

Target: AR24Q (human) (UniProt P10275)
Test: proximity ligation assay (PLA), MN1 cells, with Lsd1 silencing

In the case of “endogenous PRMT6 (mouse; MN1 cells and quadriceps muscle) (from UniProt Q6NZB1 1-378) (enzyme)”, the binding is reported as “binds”.
